Data from patent US20110144005A1, “NOVEL CYCLIC PEPTIDES” (Scynexis, Inc., priority 2009, published 2011).
Some results were stated once for a whole list of compounds, not compound by compound. Part of at least one peptide drawing is inferred or uncertain, most often the ends. Numbered stars: 1 amine (or outer) side, 2 acyl side, 3 side chain; on linkers, the order of the positions; unused ones are H or OH. Square brackets hold non-standard residues; d marks the D form. Peptide text beside a SMILES is read from it. X8 = CCOC(=O)/C=C/C[C@@H](C)[C@@H](O)[C@@H](C(=O)[*:2])N(C)[*:1]; X2 = C/C(=C\CN([C@H](C(=O)[*:2])C(C)C)[*:1])CN(C)C; MeBmt = C/C=C/C[C@@H](C)[C@@H](O)[C@H](NC)C(=O)O; X5 = CC(C)[C@@H](C(=O)[*:2])N(C/C=C/CN(C)C)[*:1]; X4 = C/C(=C\CN([C@H](C(=O)[*:2])C(C)C)[*:1])CO; X3 = CC(C)[C@@H](C(=O)[*:2])N(CCCCN(C)C)[*:1]; X1 = CC(C)[C@@H](C(=O)[*:2])N(C/C=C/CO)[*:1]; X6 = CC(C)=CCN([C@H](C(=O)[*:2])C(C)C)[*:1]; X7 = CC(C)[C@@H](C(=O)[*:2])N(CCCCO)[*:1]; NMeL = CN[C@@H](CC(C)C)C(=O)O; NMeV = CN[C@H](C(=O)O)C(C)C; dNMeA = CN[C@H](C)C(=O)O; Abu = CC[C@H](N)C(=O)O

Sequences of proteins named here, by UniProt entry; tags and fusion partners are left off. Residues count along the entry.
UniProt P30405, 30-207: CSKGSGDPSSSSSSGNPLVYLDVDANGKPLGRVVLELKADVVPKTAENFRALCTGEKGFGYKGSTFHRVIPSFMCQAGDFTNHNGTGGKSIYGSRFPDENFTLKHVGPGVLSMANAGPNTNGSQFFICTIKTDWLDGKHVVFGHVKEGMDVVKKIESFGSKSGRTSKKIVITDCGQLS
UniProt P62937, whole entry: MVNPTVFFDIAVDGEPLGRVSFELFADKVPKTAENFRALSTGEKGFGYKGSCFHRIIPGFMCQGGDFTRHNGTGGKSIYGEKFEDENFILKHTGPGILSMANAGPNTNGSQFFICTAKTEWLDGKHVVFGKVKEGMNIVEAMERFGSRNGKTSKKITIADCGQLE

Experiments:
cyclophilin D = cyclophilin D (Homo sapiens, UniProt P30405); experiment: Cyclophilin competitive ELISA (cyclophilin D); assay type: binding; conditions: human recombinant cyclophilin, read-out: EC50 against cyclophilin D
[1] = tested on: T Cell stimulation (IL-2) in Jurkat cells; experiment: T Cell stimulation (IL-2) in Jurkat cells with anti-CD3 and anti-CD28 co-stimulation; assay type: cell-based; conditions: supernatant after 6 hours, Luminex 1-plex
cyclophilin A = cyclophilin A (Homo sapiens, UniProt P62937); experiment: Cyclophilin competitive ELISA (cyclophilin A); assay type: binding; conditions: human recombinant cyclophilin, read-out: EC50 against cyclophilin A

| SMILES | EC50 (cyclophilin D) [µM] | IL-2 value [1] | EC50 (cyclophilin A) [µM] |
| --- | --- | --- | --- |
| C/C=C/C[C@@H](C)[C@@H](O)[C@H]1C(=O)N[C@@H](CC)C(=O)N(C)[C@H](C)C(=O)N(C)[C@@H](CC(C)C)C(=O)N(C/C=C(\C)CO)[C@@H](C(C)C)C(=O)N(C)[C@@H](CC(C)C)C(=O)N[C@@H](C)C(=O)N[C@H](C)C(=O)N(C)[C@@H](CC(C)C)C(=O)N(C)[C@@H](CC(C)C)C(=O)N(C)[C@@H](C(C)C)C(=O)N1C [Compound 5, [(D)-MeAla]^3-N-[trans-3-methyl-4-hydroxy-but-2-enyl]-Val^5-cyclosporine A] (cyclo(A[dA][NMeL][NMeL][NMeV][MeBmt][Abu][dNMeA][NMeL][X4][NMeL])) | < 0.0461 | greater than 300 ng/mL | < 0.0384 |
| C/C=C/C[C@@H](C)[C@@H](O)[C@H]1C(=O)N[C@@H](CC)C(=O)N(C)[C@H](C)C(=O)N(C)[C@@H](CC(C)C)C(=O)N(CCCCN(C)C)[C@@H](C(C)C)C(=O)N(C)[C@@H](CC(C)C)C(=O)N[C@@H](C)C(=O)N[C@H](C)C(=O)N(C)[C@@H](CC(C)C)C(=O)N(C)[C@@H](CC(C)C)C(=O)N(C)[C@@H](C(C)C)C(=O)N1C [Compound 9, [(D)-MeAla]^3-N-[4-dimethylaminobutyl]-Val^5-cyclosporine A] (cyclo(A[dA][NMeL][NMeL][NMeV][MeBmt][Abu][dNMeA][NMeL][X3][NMeL])) | < 0.0456 | greater than 300 ng/mL | < 0.038 |
| C/C=C/C[C@@H](C)[C@@H](O)[C@H]1C(=O)N[C@@H](CC)C(=O)N(C)[C@H](C)C(=O)N(C)[C@@H](CC(C)C)C(=O)N(CCCCO)[C@@H](C(C)C)C(=O)N(C)[C@@H](CC(C)C)C(=O)N[C@@H](C)C(=O)N[C@H](C)C(=O)N(C)[C@@H](CC(C)C)C(=O)N(C)[C@@H](CC(C)C)C(=O)N(C)[C@@H](C(C)C)C(=O)N1C [Compound 8, [(D)-MeAla]^3-N-[4-hydroxybutyl]-Val^5-cyclosporine A] (cyclo(A[dA][NMeL][NMeL][NMeV][MeBmt][Abu][dNMeA][NMeL][X7][NMeL])) | < 0.0466 | greater than 300 ng/mL | < 0.0388 |
| CCOC(=O)/C=C/C[C@@H](C)[C@@H](O)[C@H]1C(=O)N[C@@H](CC)C(=O)N(C)[C@H](C)C(=O)N(C)[C@@H](CC(C)C)C(=O)N(CC=C(C)C)[C@@H](C(C)C)C(=O)N(C)[C@@H](CC(C)C)C(=O)N[C@@H](C)C(=O)N[C@H](C)C(=O)N(C)[C@@H](CC(C)C)C(=O)N(C)[C@@H](CC(C)C)C(=O)N(C)[C@@H](C(C)C)C(=O)N1C [Compound 10, [(E)-7-ethoxycarbonyl]^1-[(D)-MeAla]^3-N-[trans-3-methylbut-2-enyl]-Val^5-cyclosporine A] (cyclo([X8][Abu][dNMeA][NMeL][X6][NMeL]A[dA][NMeL][NMeL][NMeV])) | – | greater than 300 ng/mL | – |
| C/C=C/C[C@@H](C)[C@@H](O)[C@H]1C(=O)N[C@@H](CC)C(=O)N(C)[C@H](C)C(=O)N(C)[C@@H](CC(C)C)C(=O)N(C/C=C/CO)[C@@H](C(C)C)C(=O)N(C)[C@@H](CC(C)C)C(=O)N[C@@H](C)C(=O)N[C@H](C)C(=O)N(C)[C@@H](CC(C)C)C(=O)N(C)[C@@H](CC(C)C)C(=O)N(C)[C@@H](C(C)C)C(=O)N1C [Compound 4, [(D)-MeAla]^3-N-[trans-4-hydroxy-but-2-enyl]-Val^5-cyclosporine A] (cyclo(A[dA][NMeL][NMeL][NMeV][MeBmt][Abu][dNMeA][NMeL][X1][NMeL])) | < 0.0466 | greater than 300 ng/mL | < 0.0389 |
| C/C=C/C[C@@H](C)[C@@H](O)[C@H]1C(=O)N[C@@H](CC)C(=O)N(C)[C@H](C)C(=O)N(C)[C@@H](CC(C)C)C(=O)N(C/C=C(\C)CN(C)C)[C@@H](C(C)C)C(=O)N(C)[C@@H](CC(C)C)C(=O)N[C@@H](C)C(=O)N[C@H](C)C(=O)N(C)[C@@H](CC(C)C)C(=O)N(C)[C@@H](CC(C)C)C(=O)N(C)[C@@H](C(C)C)C(=O)N1C [Compound 7, [(D)-MeAla]3-N-[trans-3-methyl-4-dimethylamino-but-2-enyl]-Val^5-cyclosporine A] (cyclo(A[dA][NMeL][NMeL][NMeV][MeBmt][Abu][dNMeA][NMeL][X2][NMeL])) | < 0.0452 | greater than 300 ng/mL | < 0.0377 |
| C/C=C/C[C@@H](C)[C@@H](O)[C@H]1C(=O)N[C@@H](CC)C(=O)N(C)[C@H](C)C(=O)N(C)[C@@H](CC(C)C)C(=O)N(CC=C(C)C)[C@@H](C(C)C)C(=O)N(C)[C@@H](CC(C)C)C(=O)N[C@@H](C)C(=O)N[C@H](C)C(=O)N(C)[C@@H](CC(C)C)C(=O)N(C)[C@@H](CC(C)C)C(=O)N(C)[C@@H](C(C)C)C(=O)N1C [Compound 2, [(D)-MeAla]^3-N-[trans-3-methylbut-2-enyl]-Val^5-cyclosporine A] (cyclo(A[dA][NMeL][NMeL][NMeV][MeBmt][Abu][dNMeA][NMeL][X6][NMeL])) | – | greater than 300 ng/mL | < 0.0389 |
| C/C=C/C[C@@H](C)[C@@H](O)[C@H]1C(=O)N[C@@H](CC)C(=O)N(C)[C@H](C)C(=O)N(C)[C@@H](CC(C)C)C(=O)N(C/C=C/CN(C)C)[C@@H](C(C)C)C(=O)N(C)[C@@H](CC(C)C)C(=O)N[C@@H](C)C(=O)N[C@H](C)C(=O)N(C)[C@@H](CC(C)C)C(=O)N(C)[C@@H](CC(C)C)C(=O)N(C)[C@@H](C(C)C)C(=O)N1C [Compound 6, [(D)-MeAla]3-N-[trans-4-dimethylamino-but-2-enyl]-Val^5-cyclosporine A] (cyclo(A[dA][NMeL][NMeL][NMeV][MeBmt][Abu][dNMeA][NMeL][X5][NMeL])) | < 0.0457 | greater than 300 ng/mL | < 0.0381 |
